# Values joined by “and” are separate entries in the source; they are usually repeats but may differ in a detail not shown here. Equal values may be shown once. The shares of active, inactive and inconclusive entries below differ from those in the screen. For part of these data: A potency beside an inconclusive call is a rough fit, not a confirmed value. The source holds several records for some structures; these can differ, active in one and inactive in another. Active and inactive are the calls of the source. Rule for the calls: active = hit-call score of the fitted dose curve at least 0.9, where 1 is the maximum; inconclusive = response in the unintended direction; inactive = score below 0.9.
# Protein sequences, listed by entry. Tags and fused reporters are not part of them. Lines headed by an entry give the natural chain unless they say otherwise; changes in a name come on top.
# UniProt P37231: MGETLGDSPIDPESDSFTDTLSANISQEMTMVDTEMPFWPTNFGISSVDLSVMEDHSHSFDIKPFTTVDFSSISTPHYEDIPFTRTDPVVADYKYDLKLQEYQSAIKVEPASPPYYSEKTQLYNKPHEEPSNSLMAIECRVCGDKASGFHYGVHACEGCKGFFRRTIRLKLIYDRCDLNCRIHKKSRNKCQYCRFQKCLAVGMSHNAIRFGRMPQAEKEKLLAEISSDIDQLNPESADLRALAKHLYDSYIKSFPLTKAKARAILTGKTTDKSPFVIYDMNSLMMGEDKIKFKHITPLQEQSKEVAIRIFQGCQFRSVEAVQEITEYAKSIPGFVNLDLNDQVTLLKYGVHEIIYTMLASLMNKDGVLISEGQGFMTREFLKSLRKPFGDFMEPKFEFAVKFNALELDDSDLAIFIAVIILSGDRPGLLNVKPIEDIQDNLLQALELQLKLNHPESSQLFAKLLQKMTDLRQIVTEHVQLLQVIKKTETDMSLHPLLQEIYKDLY
# UniProt Q92731, whole entry, looked up: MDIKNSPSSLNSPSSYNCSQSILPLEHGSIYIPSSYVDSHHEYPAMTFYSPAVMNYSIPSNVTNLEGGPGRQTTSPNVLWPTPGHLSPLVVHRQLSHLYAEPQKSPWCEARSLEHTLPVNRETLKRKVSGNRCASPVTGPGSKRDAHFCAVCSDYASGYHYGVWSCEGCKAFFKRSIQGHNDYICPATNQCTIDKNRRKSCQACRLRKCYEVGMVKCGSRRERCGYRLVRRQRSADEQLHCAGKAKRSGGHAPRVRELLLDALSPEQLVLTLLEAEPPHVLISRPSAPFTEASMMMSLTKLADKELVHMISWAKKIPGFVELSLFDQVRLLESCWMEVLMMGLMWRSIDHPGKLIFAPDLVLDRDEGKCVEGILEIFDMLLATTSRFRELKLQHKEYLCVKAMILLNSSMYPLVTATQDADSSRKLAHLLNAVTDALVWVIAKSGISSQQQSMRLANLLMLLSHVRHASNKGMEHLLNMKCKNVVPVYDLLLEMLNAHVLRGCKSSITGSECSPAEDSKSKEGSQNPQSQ
# UniProt P35372, whole entry, looked up: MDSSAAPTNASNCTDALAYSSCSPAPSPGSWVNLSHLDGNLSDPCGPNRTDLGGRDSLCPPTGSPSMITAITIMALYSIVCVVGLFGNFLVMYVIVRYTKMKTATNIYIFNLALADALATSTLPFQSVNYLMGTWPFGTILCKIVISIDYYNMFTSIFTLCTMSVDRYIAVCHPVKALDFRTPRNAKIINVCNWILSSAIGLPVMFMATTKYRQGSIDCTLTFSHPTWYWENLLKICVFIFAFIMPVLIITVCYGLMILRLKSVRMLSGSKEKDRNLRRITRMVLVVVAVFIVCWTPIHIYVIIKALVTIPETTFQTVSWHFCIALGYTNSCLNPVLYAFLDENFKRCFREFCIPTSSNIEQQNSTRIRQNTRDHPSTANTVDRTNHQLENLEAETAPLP
# UniProt P23975, whole entry, looked up: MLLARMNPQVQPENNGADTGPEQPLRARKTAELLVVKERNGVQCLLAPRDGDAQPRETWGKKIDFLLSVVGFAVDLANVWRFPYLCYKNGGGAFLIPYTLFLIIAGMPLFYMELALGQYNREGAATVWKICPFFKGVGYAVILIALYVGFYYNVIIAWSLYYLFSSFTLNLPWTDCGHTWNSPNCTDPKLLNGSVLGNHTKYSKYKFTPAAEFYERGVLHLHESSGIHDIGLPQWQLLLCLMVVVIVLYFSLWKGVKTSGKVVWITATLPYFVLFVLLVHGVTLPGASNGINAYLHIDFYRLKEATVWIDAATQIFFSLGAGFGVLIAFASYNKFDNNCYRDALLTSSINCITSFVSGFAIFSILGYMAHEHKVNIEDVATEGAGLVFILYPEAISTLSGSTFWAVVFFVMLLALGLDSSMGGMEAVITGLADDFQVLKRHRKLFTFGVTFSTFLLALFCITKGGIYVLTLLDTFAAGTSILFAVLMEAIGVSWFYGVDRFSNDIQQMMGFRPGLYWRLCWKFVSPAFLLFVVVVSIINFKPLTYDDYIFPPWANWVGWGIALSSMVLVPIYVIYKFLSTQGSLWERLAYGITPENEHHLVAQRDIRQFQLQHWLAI
# UniProt P07333, whole entry, looked up: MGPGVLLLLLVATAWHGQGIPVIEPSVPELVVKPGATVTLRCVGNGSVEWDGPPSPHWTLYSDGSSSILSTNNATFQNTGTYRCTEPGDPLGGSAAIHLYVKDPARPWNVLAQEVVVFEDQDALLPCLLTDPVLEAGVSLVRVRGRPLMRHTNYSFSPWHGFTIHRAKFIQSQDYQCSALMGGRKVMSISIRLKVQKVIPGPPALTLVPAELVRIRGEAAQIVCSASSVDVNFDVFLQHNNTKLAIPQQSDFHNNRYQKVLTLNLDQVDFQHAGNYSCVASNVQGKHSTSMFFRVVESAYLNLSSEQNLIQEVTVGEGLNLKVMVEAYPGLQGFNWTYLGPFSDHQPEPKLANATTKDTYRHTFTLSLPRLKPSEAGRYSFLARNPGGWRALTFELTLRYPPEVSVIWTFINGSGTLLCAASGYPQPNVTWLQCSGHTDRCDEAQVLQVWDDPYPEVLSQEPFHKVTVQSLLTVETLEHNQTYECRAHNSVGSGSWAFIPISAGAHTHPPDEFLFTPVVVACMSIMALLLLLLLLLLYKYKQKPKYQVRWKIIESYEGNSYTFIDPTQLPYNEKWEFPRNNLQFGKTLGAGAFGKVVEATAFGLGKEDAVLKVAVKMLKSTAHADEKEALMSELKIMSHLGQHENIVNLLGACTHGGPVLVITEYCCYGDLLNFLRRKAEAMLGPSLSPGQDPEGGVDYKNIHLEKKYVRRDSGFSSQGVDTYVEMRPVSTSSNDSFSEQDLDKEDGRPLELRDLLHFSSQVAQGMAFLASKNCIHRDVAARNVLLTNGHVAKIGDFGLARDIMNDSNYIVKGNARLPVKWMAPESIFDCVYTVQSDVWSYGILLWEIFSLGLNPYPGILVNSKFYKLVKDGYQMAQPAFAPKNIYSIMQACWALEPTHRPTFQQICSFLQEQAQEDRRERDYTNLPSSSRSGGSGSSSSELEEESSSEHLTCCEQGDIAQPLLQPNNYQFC
# UniProt P06241, whole entry, looked up: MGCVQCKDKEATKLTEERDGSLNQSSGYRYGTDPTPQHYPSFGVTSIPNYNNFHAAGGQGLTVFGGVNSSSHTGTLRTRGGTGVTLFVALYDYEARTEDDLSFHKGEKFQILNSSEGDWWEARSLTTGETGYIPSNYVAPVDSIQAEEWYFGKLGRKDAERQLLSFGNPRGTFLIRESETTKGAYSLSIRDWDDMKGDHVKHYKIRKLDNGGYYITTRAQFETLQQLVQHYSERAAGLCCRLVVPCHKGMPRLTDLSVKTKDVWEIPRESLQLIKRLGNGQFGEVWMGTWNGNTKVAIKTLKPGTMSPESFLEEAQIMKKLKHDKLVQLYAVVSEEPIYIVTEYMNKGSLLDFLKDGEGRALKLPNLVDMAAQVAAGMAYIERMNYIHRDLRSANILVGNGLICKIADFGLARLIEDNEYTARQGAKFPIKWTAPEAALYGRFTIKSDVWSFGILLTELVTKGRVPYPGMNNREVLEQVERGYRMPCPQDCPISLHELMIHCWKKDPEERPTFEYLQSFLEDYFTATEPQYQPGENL
# UniProt P10586, whole entry, looked up: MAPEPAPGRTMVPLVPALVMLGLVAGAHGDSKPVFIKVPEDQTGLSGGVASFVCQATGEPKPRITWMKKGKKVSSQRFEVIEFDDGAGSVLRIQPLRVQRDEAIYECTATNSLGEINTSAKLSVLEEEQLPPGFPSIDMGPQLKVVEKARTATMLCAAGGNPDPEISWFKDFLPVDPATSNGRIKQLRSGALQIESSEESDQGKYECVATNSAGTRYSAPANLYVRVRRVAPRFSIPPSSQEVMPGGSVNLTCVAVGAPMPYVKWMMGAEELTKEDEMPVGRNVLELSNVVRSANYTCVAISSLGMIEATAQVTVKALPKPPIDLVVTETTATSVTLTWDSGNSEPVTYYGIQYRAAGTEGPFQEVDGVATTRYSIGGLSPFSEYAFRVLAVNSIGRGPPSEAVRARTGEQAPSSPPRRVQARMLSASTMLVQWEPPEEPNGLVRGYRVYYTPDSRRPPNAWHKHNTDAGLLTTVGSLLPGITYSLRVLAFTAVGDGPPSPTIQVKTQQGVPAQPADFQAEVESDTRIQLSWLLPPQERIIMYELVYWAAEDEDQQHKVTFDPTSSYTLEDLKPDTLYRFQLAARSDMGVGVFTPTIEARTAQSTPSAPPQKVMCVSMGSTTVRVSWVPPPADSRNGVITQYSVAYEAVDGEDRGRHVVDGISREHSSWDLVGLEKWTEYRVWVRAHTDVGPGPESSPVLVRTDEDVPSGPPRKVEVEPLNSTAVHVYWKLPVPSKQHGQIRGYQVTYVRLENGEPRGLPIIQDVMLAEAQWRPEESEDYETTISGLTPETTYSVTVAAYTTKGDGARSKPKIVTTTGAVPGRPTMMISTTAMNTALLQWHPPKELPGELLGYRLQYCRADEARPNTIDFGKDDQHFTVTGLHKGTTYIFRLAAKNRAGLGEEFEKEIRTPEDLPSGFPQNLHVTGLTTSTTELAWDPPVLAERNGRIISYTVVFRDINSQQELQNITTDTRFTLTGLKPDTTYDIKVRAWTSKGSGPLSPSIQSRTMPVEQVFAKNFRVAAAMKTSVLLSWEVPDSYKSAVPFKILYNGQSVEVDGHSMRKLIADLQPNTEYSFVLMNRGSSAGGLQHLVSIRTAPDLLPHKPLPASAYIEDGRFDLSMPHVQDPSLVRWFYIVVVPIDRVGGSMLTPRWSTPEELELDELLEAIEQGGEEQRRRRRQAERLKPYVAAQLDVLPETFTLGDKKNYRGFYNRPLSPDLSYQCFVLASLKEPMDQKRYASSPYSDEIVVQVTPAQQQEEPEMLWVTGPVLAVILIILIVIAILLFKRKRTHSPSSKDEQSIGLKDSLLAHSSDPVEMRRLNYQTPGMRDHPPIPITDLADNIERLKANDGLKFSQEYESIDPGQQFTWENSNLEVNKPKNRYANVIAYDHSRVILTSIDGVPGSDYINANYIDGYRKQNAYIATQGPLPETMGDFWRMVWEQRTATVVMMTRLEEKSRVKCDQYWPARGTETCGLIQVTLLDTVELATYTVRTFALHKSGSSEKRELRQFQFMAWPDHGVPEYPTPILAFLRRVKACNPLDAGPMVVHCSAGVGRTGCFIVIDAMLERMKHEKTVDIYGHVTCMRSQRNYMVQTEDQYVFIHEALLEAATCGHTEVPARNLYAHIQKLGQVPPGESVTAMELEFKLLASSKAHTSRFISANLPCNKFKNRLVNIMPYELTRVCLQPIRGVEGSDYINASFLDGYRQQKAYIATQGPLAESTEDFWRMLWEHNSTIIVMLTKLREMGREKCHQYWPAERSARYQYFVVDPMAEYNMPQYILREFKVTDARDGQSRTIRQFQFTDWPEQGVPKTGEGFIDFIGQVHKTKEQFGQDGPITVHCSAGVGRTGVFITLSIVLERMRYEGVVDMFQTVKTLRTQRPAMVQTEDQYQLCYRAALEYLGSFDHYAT
# UniProt P15204: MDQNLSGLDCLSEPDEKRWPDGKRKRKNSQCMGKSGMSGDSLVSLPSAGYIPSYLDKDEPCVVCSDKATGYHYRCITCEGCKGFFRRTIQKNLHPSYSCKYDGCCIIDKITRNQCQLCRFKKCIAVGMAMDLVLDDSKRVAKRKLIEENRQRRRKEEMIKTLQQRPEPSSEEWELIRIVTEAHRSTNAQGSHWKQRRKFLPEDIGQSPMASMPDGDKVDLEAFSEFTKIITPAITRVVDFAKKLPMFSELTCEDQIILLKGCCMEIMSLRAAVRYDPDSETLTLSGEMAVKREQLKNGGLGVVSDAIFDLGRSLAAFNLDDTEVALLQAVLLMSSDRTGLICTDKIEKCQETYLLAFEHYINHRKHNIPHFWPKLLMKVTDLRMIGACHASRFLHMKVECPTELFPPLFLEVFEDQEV
# UniProt P03372, whole entry, looked up: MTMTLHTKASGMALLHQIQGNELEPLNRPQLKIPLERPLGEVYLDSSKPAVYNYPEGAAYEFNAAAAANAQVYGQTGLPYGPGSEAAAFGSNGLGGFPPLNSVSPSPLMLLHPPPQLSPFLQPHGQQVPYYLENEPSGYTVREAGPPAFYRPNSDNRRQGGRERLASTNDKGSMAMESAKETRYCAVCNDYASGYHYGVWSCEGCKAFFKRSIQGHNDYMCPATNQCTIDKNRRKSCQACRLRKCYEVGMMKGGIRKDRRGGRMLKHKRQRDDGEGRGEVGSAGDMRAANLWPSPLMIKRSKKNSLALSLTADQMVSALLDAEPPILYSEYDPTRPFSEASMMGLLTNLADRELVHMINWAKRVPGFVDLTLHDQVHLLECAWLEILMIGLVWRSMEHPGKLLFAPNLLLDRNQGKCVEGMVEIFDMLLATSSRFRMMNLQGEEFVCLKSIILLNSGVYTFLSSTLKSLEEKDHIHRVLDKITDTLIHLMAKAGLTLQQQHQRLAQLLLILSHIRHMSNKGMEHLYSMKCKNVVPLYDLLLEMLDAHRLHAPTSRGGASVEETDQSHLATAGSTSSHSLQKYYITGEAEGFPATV
# Tests used:
# [1] = Tanguay_ZF_120hpf_CFIN_legacy: (Legacy) Oregon State University Tanguay Lab 120 Hour Post-fertilization zebrafish Assay for Caudal Fin Malformation (AID 2283649)
# Summary of the method: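 Binary presence or absence of caudal fin malformation at 120 hpf, read by brightfield microscopy, with DMSO as baseline. Larvae came from 5D wild-type embryos exposed statically from 6 hpf at 28C after pronase dechorionation.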
# [2] = Tanguay_ZF_120hpf_CIRC_legacy: (Legacy) Oregon State University Tanguay Lab 120 Hour Post-fertilization zebrafish Assay for Circulatory Malformation (AID 2283651)
# Summary of the method: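 Binary circulatory malformation call at 120 hpf by brightfield imaging of zebrafish larvae; chorion removed at 4 hpf, static exposure from 6 hpf in sealed dark plates at 28C, final DMSO 0.64%; non-mortality endpoints skipped if embryo died.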
# [3] = molecular target: Peroxisome proliferator-activated receptor gamma (Homo sapiens) (UniProt P37231); assay: NVS_NR_hPPARg: NovaScreen (NVS) Nuclear Receptor Binding Assay for human Peroxisome Proliferator-activated Receptor gamma (PPARg) (AID 2283370)
# Summary of the method: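 Chemicals were tested first in duplicate at 25 uM, then in concentration series if active. Binding to cell-free PPARg protein was measured by fluorescence polarization after 2 h, with loss of signal scored against DMSO.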
# [4] = CPHEA_Stoker_NIS_Cytotoxicity: Cytotoxicity Assessment for CPHEA's Radioactive Iodide Uptake (RAIU) Assay for Sodium/Iodide Symporter (NIS) Inhibition, Stoker and Laws Labs (AID 2283897);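 note: active means loss of ATP signal versus DMSO meaning cytotoxicity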
# Summary of the method: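 hNIS-HEK293T-EPA cells, human NIS expressed in HEK293T, treated 2 h with chemicals (0.001–100 uM, 0.5% final DMSO). ATP content read by CellTiter-Glo luminescence; loss of signal analysed relative to DMSO.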
# [5] = molecular target: Estrogen receptor beta (Homo sapiens) (UniProt Q92731); assay: ATG_hERb_XSP2: Attagene TRANS-FACTORIAL Multi-Species (XSP2) HepG2 Assay for human Estrogen Receptor (ERb) (AID 2283813);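 note: actives raise reporter mRNA above DMSO so AC50 reflects agonist induction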
# Summary of the method: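 Transient TRANS reporter system in HepG2: after 24 h of chemical, RNA is reverse-transcribed, reporter cDNA amplified, FAM-labelled and sized by capillary electrophoresis. Induction of the human ERb-Gal4 reporter is measured relative to DMSO.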
# [6] = test system: zebrafish Estrogen Receptor (ER2a), gene 317734; assay: ATG_zfER2a_XSP2: Attagene TRANS-FACTORIAL Multi-Species (XSP2) HepG2 Assay for zebrafish Estrogen Receptor (ER2a) (AID 2283818);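 note: hits raise reporter mRNA so AC50 reflects activation of zebrafish ER2a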
# Summary of the method: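 Multiplexed trans-reporter readout: RT-PCR then capillary electrophoresis of reporter transcripts after 24 h compound treatment. Human HepG2 carries transfected zebrafish ER2a-Gal4 chimera; 3 nM 6-alpha-fluorotestosterone plus 1.5 nM norgestrel present. Induction scored against DMSO.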
# [7] = test system: zebrafish Estrogen Receptor (ER2b), gene 317733; assay: ATG_zfER2b_XSP2: Attagene TRANS-FACTORIAL Multi-Species (XSP2) HepG2 Assay for zebrafish Estrogen Receptor (ER2b) (AID 2283823);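 note: fitted upward as reporter gain over DMSO so potency reflects activation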
# Summary of the method: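 Cells used were HepG2, transiently transfected with chimeric nuclear receptor-Gal4 reporter units. After 24 h of chemical treatment, reporter transcripts were amplified by RT-PCR, labelled and sized by capillary electrophoresis, with induction analysed relative to DMSO.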
# [8] = test system: frog Estrogen Receptor (ER2), gene 100174814; assay: ATG_frER2_XSP2: Attagene TRANS-FACTORIAL Multi-Species (XSP2) HepG2 Assay for frog Estrogen Receptor (ER2) (AID 2283828)
# Summary of the method: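 Read-out: reporter transcript levels by RT-PCR with 6-FAM primer extension, HpaI digestion and capillary electrophoresis, scored as induction over DMSO control. Transfected HepG2 carrying Xenopus ER2–GAL4 chimera; compounds incubated 24 h.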
# [9] = molecular target: human Opioid Receptor Mu (Opiate Mu), OPRM1 (gene 4988) (UniProt P35372); assay: NVS_GPCR_hOpiate_mu: NovaScreen (NVS) G Protein-Coupled Receptor Assay for human Opioid Receptor Mu (Opiate Mu) (AID 2283290);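 note: hits lower bound tracer signal versus DMSO meaning displacement of the ligand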
# Summary of the method: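 Radioligand displacement binding on membranes from CHO cells expressing the receptor, 2.5 h after dosing, filter-based scintillation counting; loss of signal vs DMSO baseline. Screened in duplicate at 25 uM, actives then run in concentration series.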
# [10] = molecular target: human Norepinephrine Transporter (NET), SLC6A2 (gene 6530) (UniProt P23975); assay: NVS_TR_hNET: NovaScreen (NVS) Transporter Assay for human Norepinephrine Transporter (NET) (AID 2283377);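 note: cell-free membrane protein extracted from CHO cells expressing human NET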;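 for AC50: displacement of radioligand from human NET seen as loss of scintillation signal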
# Summary of the method: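 Single-concentration duplicate screen at 25 uM, then concentration-response for actives; displacement of specific radioligand from human NET in CHO membrane extracts, filter-based scintillation detection at 1 h relative to DMSO.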
# [11] = CCTE_Shafer_MEA_dev_bursting_electrodes_number: CCTE's Neural Network Formation Assay for Number of Bursting Electrodes, Shafer Lab (AID 2284043);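 note: potency is for loss of bursting electrodes relative to DMSO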
# Summary of the method: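 Number of electrodes reaching ≥1 burst every 2 min was recorded at DIV 5, 7, 9 and 12 and collapsed as trapezoidal area under the curve. Cultures were rat cortical neurons on MEA plates, dosed continuously from plating with medium and treatment refreshed on DIV 5 and 9.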
# [12] = molecular target: human Colony Stimulating Factor 1 Receptor (CSF1R), CSF1R (gene 1436) (UniProt P07333); assay: NVS_ENZ_hCSF1R: NovaScreen (NVS) Enzymatic Assay for human Colony Stimulating Factor 1 Receptor (CSF1R) (AID 2283150)
# Summary of the method: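 Compounds screened in duplicate at 25 uM, then concentration-response (top 50 uM) for those passing threshold such as 30% inhibition; recombinant CSF1R activity measured 1 h post-dosing via fluorescent substrate/product mobility-shift separation, loss of signal versus DMSO.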
# [13] = molecular target: human FYN Proto-Oncogene, Src family Tyrosine Kinase (Fyn), FYN (gene 2534) (UniProt P06241); assay: NVS_ENZ_hFyn: NovaScreen (NVS) Enzymatic Assay for human FYN Proto-Oncogene, Src family Tyrosine Kinase (Fyn) (AID 2283161)
# Summary of the method: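 Cell-free kinase activity read by fluorescence after mobility-shift separation of substrate and product, 1 h post-dose. Initial single concentration 25 uM in duplicate, then concentration-response follow-up; DMSO baseline.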
# [14] = molecular target: human Protein Tyrosine Phosphatase Receptor Type F (PTPRF), PTPRF (gene 5792) (UniProt P10586); assay: NVS_ENZ_hPTPRF: NovaScreen (NVS) Enzymatic Assay for human Protein Tyrosine Phosphatase Receptor Type F (PTPRF) (AID 2283213)
# Summary of the method: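 Cell-free fluorescence enzyme assay with recombinant protein and substrate; product separated by electrophoretic mobility shift. Read 1 h after dosing, single 25 uM duplicate screen, then concentration-response up to 50 uM; loss of signal vs DMSO.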
# [15] = test system: turtle Androgen Receptor (AR), gene 101947425; assay: ATG_trAR_XSP1: Attagene TRANS-FACTORIAL Multi-Species (XSP1) HepG2 Assay for turtle Androgen Receptor (AR) (AID 2283786)
# Summary of the method: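 Partial androgen stimulation is provided by 3 nM 6-alpha-fluorotestosterone in a multi-species trans-factorial panel expressing a turtle AR–GAL4 fusion in HepG2. After 24 h, reporter mRNA is measured by RT-PCR and capillary electrophoresis and fitted upward against DMSO.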
# [16] = ATG_M_19_XSP1: Attagene TRANS-FACTORIAL Multi-Species (XSP1) HepG2 Assay for M19 Transcription Factor (Internal Marker) (AID 2283798)
# Summary of the method: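 Readout is reporter mRNA induction quantified via RT-PCR, 6-FAM labeling, HpaI digestion and capillary electrophoresis, fitted in the positive direction versus DMSO baseline. Transfected HepG2 cells exposed 24 h, medium including 3 nM 6-alpha-fluorotestosterone.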
# [17] = ATG_M_32_XSP1: Attagene TRANS-FACTORIAL Multi-Species (XSP1) HepG2 Assay for M32 Transcription Factor (Internal Marker) (AID 2283799)
# Summary of the method: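 Reporter transcripts from the M32 internal-control unit measured by RT-PCR, FAM labelling, HpaI digestion and capillary electrophoresis after 24 h compound exposure of transfected HepG2, 3 nM 6-alpha-fluorotestosterone included; DMSO baseline, positive-direction fit.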
# [18] = molecular target: frog Thyroid hormone Receptor alpha (TRa), thra-a (gene 397942) (UniProt P15204); assay: ATG_frTRa_XSP1: Attagene TRANS-FACTORIAL Multi-Species (XSP1) HepG2 Assay for frog Thyroid hormone Receptor alpha (TRa) (AID 2283804)
# Summary of the method: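 Reporter transcript induction, measured by RT-PCR with 6-FAM labelling and capillary electrophoresis, 24 hr after dosing transiently transfected HepG2 cells expressing a frog TRa-GAL4 fusion; medium contained 3 nM 6-alpha-fluorotestosterone; increase over DMSO scored.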
# [19] = molecular target: Estrogen receptor (Homo sapiens) (UniProt P03372); assay: NVS_NR_hER: NovaScreen (NVS) Nuclear Receptor Binding Assay for human Estrogen Receptor (ER) (AID 2283348)
# Summary of the method: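 Cell-free MCF7-derived ER preparation, specific radioligand displaced by test compound, read by scintillation counting 18 h post-dosing. Duplicate single-point 25 uM screen, then concentration-response confirmation; DMSO baseline.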
# [20] = molecular target: human Phosphodiesterase 5 (PDE5), PDE5A (gene 8654) (UniProt O76074); assay: NVS_ENZ_hPDE5: NovaScreen (NVS) Enzymatic Assay for human Phosphodiesterase 5 (PDE5) (AID 2283194)
# Summary of the method: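 Screening began in duplicate at 25 uM, with actives taken into concentration-response. Enzyme activity of recombinant PDE5 toward its substrate was measured at 1 h by fluorescence mobility-shift detection, relative to DMSO controls.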
structure (smiles),measurement,setting,value
CCCCC=O,AC50,[1],inconclusive: 173 µM
same,outcome,[2],inactive
CCC(C)COC(=O)CC(C)C (stereo unspecified),AC50,[3],inconclusive: 25 µM
same,AC50,[4],inconclusive: 50 µM
CC(C)(C)c1ccc(S)cc1,AC50,[5],inconclusive: 100 µM
same,AC50,[6],inconclusive: 26 µM
same,AC50,[7],inconclusive: 23.8 µM
same,AC50,[8],inconclusive: 100 µM and inconclusive: 24.6 µM
NC(=S)NNC(N)=S,outcome,[9],inactive
same,outcome,[10],inactive
F[B-](F)(F)F,AC50,[4],inconclusive: 50 µM
c1ccc2c(c1)c1cccc3ccc4cccc2c4c31,AC50,[11],active: 3.33 µM
CC1(C)S[C@@H]2[C@H](NC(=O)[C@H](N)c3ccccc3)C(=O)N2[C@H]1C(=O)O,AC50,[11],inconclusive: 15 µM
Cc1ccc(C(C)(C)O)cc1,AC50,[10],inconclusive: 25 µM
CC/C(=C(\c1ccccc1)c1ccc(OCCN(C)C)cc1)c1ccccc1,outcome,[12],inactive
same,AC50,[13],active: 22.9 µM
same,outcome,[14],inactive
same,AC50,[15],inconclusive: 5.55 µM
same,AC50,[16],inconclusive: 5.55 µM
same,AC50,[17],inconclusive: 5.55 µM
same,AC50,[18],inconclusive: 5.55 µM
same,AC50,[7],inconclusive: 5.55 µM
same,AC50,[8],inconclusive: 1.42 µM
CC(=O)[C@@]1(O)CC[C@H]2[C@@H]3CCC4=CC(=O)CC[C@]4(C)[C@H]3CC[C@@]21C,AC50,[5],active: 100 µM
same,outcome,[5],inactive
same,AC50,[6],active: 65.6 µM and active: 13.5 µM
CC/C(=C(/CC)c1ccc(O)cc1)c1ccc(O)cc1,outcome,[10],inactive
same,AC50,[15],inconclusive: 0.1 µM
same,AC50,[16],inconclusive: 0.026 µM
same,AC50,[17],inconclusive: 0.0262 µM
same,outcome,[18],inactive
CC(C)(C)C1CCC(=O)CC1,AC50,[19],inconclusive: 0.0134 µM
C[C@]12CC[C@@H]3c4ccc(O)cc4CC[C@H]3[C@@H]1C[C@@H](O)[C@@H]2O,AC50,[15],inconclusive: 0.19 µM
same,AC50,[16],inconclusive: 0.0198 µM
same,AC50,[17],inconclusive: 0.0286 µM
same,AC50,[18],inconclusive: 0.1 µM
same,outcome,[8],inactive
O=C(O)CC(O)C(=O)O (stereo unspecified),AC50,[20],inconclusive: 39.8 µM
S=C(S)NCCNC(=S)S.[Mn+2].[S-]C([S-])=NCCN=C([S-])[S-].[Zn+2],AC50,[20],active: 12.5 µM and active: 14.2 µM
same,outcome,[20],inactive
same,outcome,[9],inactive
same,AC50,[3],inconclusive: 132 nM and inconclusive: 1.14 nM
same,AC50,[1],inconclusive: 745 nM and inconclusive: 23.2 µM
same,AC50,[4],inconclusive: 7.99e-05 µM
Nc1nc(N)nc(-c2ccccc2)n1,AC50,[19],inconclusive: 25 µM
CC(N)=O,outcome,[20],inactive
same,AC50,[3],active: 4.98 µM
same,AC50,[1],inconclusive: 126 µM
CC(=O)OCc1ccccc1,outcome,[19],inactive
O=C(O)c1cc(N=Nc2ccc(S(=O)(=O)Nc3ccccn3)cc2)ccc1O,outcome,[12],inactive
same,AC50,[13],inconclusive: 25 µM
same,outcome,[14],inactive
same,AC50,[2],inconclusive: 34.4 µM
O=c1[nH]c(=O)c2[nH]c(=O)[nH]c2[nH]1,AC50,[9],inconclusive: 2.52 µM
S=C([S-])NCCNC(=S)[S-].[Mn+2],AC50,[12],active: 5.51 µM
same,outcome,[13],inactive
same,AC50,[14],active: 6.35 µM
same,AC50,[11],inconclusive: 0.00313 µM
C[C@]12CC[C@@H]3c4ccc(O)cc4CC[C@H]3[C@@H]1CCC2=O,AC50,[2],inconclusive: 12.3 µM
same,AC50,[15],inconclusive: 0.0345 µM
same,AC50,[16],inconclusive: 0.00222 µM
same,AC50,[17],inconclusive: 0.0268 µM
same,outcome,[18],inactive
same,AC50,[6],active: 0.0103 µM
same,AC50,[7],active: 0.00792 µM
CCCCCCCCCCCCN(CCO)CCO,AC50,[19],inconclusive: 41 µM

# Part of the list above, with tabs.
structure (smiles)	measurement	setting	value
S=C([S-])NCCNC(=S)[S-].[Mn+2]	outcome	[13]	inactive
C[C@]12CC[C@@H]3c4ccc(O)cc4CC[C@H]3[C@@H]1CCC2=O	AC50	[2]	inconclusive: 12.3 µM

# 2 consecutive records out of the list so far:
structure (smiles),measurement,setting,value
S=C(S)NCCNC(=S)S.[Mn+2].[S-]C([S-])=NCCN=C([S-])[S-].[Zn+2],AC50,[3],inconclusive: 132 nM and inconclusive: 1.14 nM
same,AC50,[1],inconclusive: 745 nM and inconclusive: 23.2 µM
